Results are given in words; binding and its absence hold for the method and conditions named. In cells and extracts the contact can be indirect. These calls come from enrichment with a bait or labelling near it, and not all partners need be listed.
Target: Flag-tagged STK33 immunoprecipitated from MDA-MB-231 cells (UniProt Q9BYT3)
Assay: affinity purification with mass spectrometry; proteins immunoprecipitated by anti-Flag antibody from MDA-MB-231 cells, analysed by mass spectrometry

Protein sequences, listed by entry. Tags and fused reporters are not part of them.
UniProt Q9BYT3: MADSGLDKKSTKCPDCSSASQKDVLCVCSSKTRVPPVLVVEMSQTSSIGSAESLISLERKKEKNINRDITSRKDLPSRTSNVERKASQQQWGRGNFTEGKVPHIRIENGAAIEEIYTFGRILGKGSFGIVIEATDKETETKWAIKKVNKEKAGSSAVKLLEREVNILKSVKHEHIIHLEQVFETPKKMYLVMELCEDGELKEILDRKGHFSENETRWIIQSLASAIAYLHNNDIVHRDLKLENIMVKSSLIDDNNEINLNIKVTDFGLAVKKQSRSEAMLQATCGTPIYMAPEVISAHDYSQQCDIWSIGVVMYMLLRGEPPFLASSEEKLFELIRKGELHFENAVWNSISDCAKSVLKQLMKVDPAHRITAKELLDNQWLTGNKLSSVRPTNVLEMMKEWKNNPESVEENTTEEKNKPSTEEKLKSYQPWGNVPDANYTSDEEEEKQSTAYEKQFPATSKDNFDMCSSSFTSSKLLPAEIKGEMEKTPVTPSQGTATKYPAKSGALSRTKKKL

binding: binds
B1: cell division cycle and apoptosis regulator protein 1 (CCAR1) (protein, UniProt Q8IX12 1-1150)
chain: MAQFGGQKNPPWATQFTATAVSQPAALGVQQPSLLGASPTIYTQQTALAAAGLTTQTPANYQLTQTAALQQQAAAAAAALQQQYSQPQQALYSVQQQLQQPQQTLLTQPAVALPTSLSLSTPQPTAQITVSYPTPRSSQQQTQPQKQRVFTGVVTKLHDTFGFVDEDVFFQLSAVKGKTPQVGDRVLVEATYNPNMPFKWNAQRIQTLPNQNQSQTQPLLKTPPAVLQPIAPQTTFGVQTQPQPQSLLQAQISAASITPLLQTQPQPLLQQPQQKAGLLQPPVRIVSQPQPARRLDPPSRFSGRNDRGDQVPNRKDDRSRERERERRRSRERSPQRKRSRERSPRRERERSPRRVRRVVPRYTVQFSKFSLDCPSCDMMELRRRYQNLYIPSDFFDAQFTWVDAFPLSRPFQLGNYCNFYVMHREVESLEKNMAILDPPDADHLYSAKVMLMASPSMEDLYHKSCALAEDPQELRDGFQHPARLVKFLVGMKGKDEAMAIGGHWSPSLDGPDPEKDPSVLIKTAIRCCKALTGIDLSVCTQWYRFAEIRYHRPEETHKGRTVPAHVETVVLFFPDVWHCLPTRSEWETLSRGYKQQLVEKLQGERKEADGEQDEEEKDDGEAKEISTPTHWSKLDPKTMKVNDLRKELESRALSSKGLKSQLIARLTKQLKVEEQKEEQKELEKSEKEEDEDDDRKSEDDKEEEERKRQEEIERQRRERRYILPDEPAIIVHPNWAAKSGKFDCSIMSLSVLLDYRLEDNKEHSFEVSLFAELFNEMLQRDFGVRIYKSLLSLPEKEDKKEKDKKSKKDERKDKKEERDDETDEPKPKRRKSGDDKDKKEDRDERKKEDKRKDDSKDDDETEEDNNQDEYDPMEAEEAEDEEDDRDEEEMTKRDDKRDINRYCKERPSKDKEKEKTQMITINRDLLMAFVYFDQSHCGYLLEKDLEEILYTLGLHLSRAQVKKLLNKVVLRESCFYRKLTDTSKDEENHEESESLQEDMLGNRLLLPTPTVKQESKDVEENVGLIVYNGAMVDVGSLLQKLEKSEKVRAEVEQKLQLLEEKTDEDEKTILNLENSNKSLSGELREVKKDLSQLQENLKISENMNLQFENQMNKTIRNLSTVMDEIHTVLKKDNVKNEDKDQKSKENGASV

— article PMC12591119
